From article PMC8860381 (Molecular Cell, 2022) come the findings set out here.

In this data set the test system is hSKI complex WT (hSKI2-hSKI3-hSKI8, two hSKI8 copies) (Homo sapiens). In words: cryo-EM structure. The conditions noted are these: ADP-BeF, closed state, 6 nt (N1-N6) resolved in hSKI2 helicase core; hSKI storage buffer 20 mM Hepes pH 7.5, 100 mM NaCl; recombinant protein.

UUUUUUUUUUUUUUUUUUUUUUUUU [25U RNA]: the binding result was “binds”.
